PubChem BioAssay AID504793 | Drosophila RNAi Screening Center – 2011
In all, the deposit lists about 23,000 reagents; below is a random part of those that have a named target and a result. Over the whole deposit, 62 (0.27%) are marked active. 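Calls come from follow-up tests whose scores are not deposited, so confirmed genes may have low counts here; counts are not normalised per plate.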 The raw values are shown without normalisation. Reagent sequences are not shown.

Screen: 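Whole-genome screen for parts of the DNA damage checkpoint at G2/M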 (primary screen)
Cell system: Drosophila S2R+ cells
Reagents: long dsRNA against Drosophila genes, about 0.25 µg dsRNA per well
Duration: 4 days of dsRNA, then 4 hours of drug before read-out
Conditions: doxorubicin 0.5 µM for 4 hours to cause double-strand breaks, in cells also given a low, harmless dose of dsRNA against nbs to sensitise the assay
Measured: 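Mitotic index as the number of phospho-histone H3-positive cells in each well following doxorubicin, given as raw counts without normalisation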
Direction: mitotic cells: higher = more cells in mitosis, weaker G2 arrest
Hit rule: 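Genes are called active only when high mitotic counts were reproduced with independent dsRNAs and mitosis was checked for delay without damage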
Meaning of the calls: active = confirmed in follow-up tests; inactive = not confirmed

B9d1 (GeneID 41888) [DRSC14993] → mitotic cells, replicate 1 = 9; call = inactive
Idgf4 (GeneID 31926) [DRSC18675] → mitotic cells, replicate 1 = 8; call = inactive
Idgf4 (GeneID 31926) [DRSC24939] → mitotic cells, replicate 1 = 2; call = inactive
santa-maria (GeneID 34024) [DRSC00994] → mitotic cells, replicate 1 = 4; call = inactive
santa-maria (GeneID 34024) [DRSC02180] → mitotic cells, replicate 1 = 6; call = inactive
Tango14 (GeneID 33298) [DRSC00667] → mitotic cells, replicate 1 = 3; call = inactive
Tango14 (GeneID 33298) [DRSC29882] → mitotic cells, replicate 1 = 6; call = inactive
mol (GeneID 34872) [DRSC01431] → mitotic cells, replicate 1 = 4; mitotic cells, replicate 2 = 5; call = inactive
mol (GeneID 34872) [DRSC01912] → mitotic cells, replicate 1 = 2; call = inactive
mol (GeneID 34872) [DRSC02479] → mitotic cells, replicate 1 = 9; call = inactive
mol (GeneID 34872) [DRSC23967] → mitotic cells, replicate 1 = 9; call = inactive
Muc4B (GeneID 31368) [DRSC18062] → mitotic cells, replicate 1 = 6; call = inactive
Muc4B (GeneID 31368) [DRSC18063] → mitotic cells, replicate 1 = 9; call = inactive
Muc4B (GeneID 31368) [DRSC29148] → mitotic cells, replicate 1 = 3; call = inactive
HnRNP-K (GeneID 43862) [DRSC07585] → mitotic cells, replicate 1 = 13; call = inactive
HnRNP-K (GeneID 43862) [DRSC22734] → mitotic cells, replicate 1 = 7; call = inactive
HnRNP-K (GeneID 43862) [DRSC24070] → mitotic cells, replicate 1 = 13; call = inactive
CG8369 (GeneID 50005) [DRSC16413] → mitotic cells, replicate 1 = 6; call = inactive
CG42327 (GeneID 41401) [DRSC14936] → call = inactive
CG42327 (GeneID 41401) [DRSC14937] → mitotic cells, replicate 1 = 5; call = inactive
CG42327 (GeneID 41401) [DRSC23337] → mitotic cells, replicate 1 = 4; call = inactive
CG42327 (GeneID 41401) [DRSC28159] → mitotic cells, replicate 1 = 1; call = inactive
CG42327 (GeneID 41401) [DRSC28248] → mitotic cells, replicate 1 = 6; call = inactive
CG34461 (GeneID 5740547) [DRSC10767] → mitotic cells, replicate 1 = 3; call = inactive
SecS (GeneID 40681) [DRSC12222] → mitotic cells, replicate 1 = 7; call = inactive
CG15550 (GeneID 43666) [DRSC15088] → mitotic cells, replicate 1 = 7; call = inactive
CG15550 (GeneID 43666) [DRSC29401] → mitotic cells, replicate 1 = 5; call = inactive
CR18217 (GeneID 8674109) [DRSC21506] → mitotic cells, replicate 1 = 9; call = inactive
COX4 (GeneID 35279) [DRSC02091] → mitotic cells, replicate 1 = 8; call = inactive
COX4 (GeneID 35279) [DRSC23915] → mitotic cells, replicate 1 = 7; call = inactive
CHMP2B (GeneID 38599) [DRSC10436] → mitotic cells, replicate 1 = 3; call = inactive
CHMP2B (GeneID 38599) [DRSC26221] → mitotic cells, replicate 1 = 6; call = inactive
CG6923 (GeneID 41420) [DRSC16136] → mitotic cells, replicate 1 = 10; call = inactive
CG6923 (GeneID 41420) [DRSC29621] → mitotic cells, replicate 1 = 3; call = inactive

Targets above whose gene name begins with I or i:
Idgf4 (GeneID 31926) [DRSC18675] → mitotic cells, replicate 1 = 8; call = inactive
Idgf4 (GeneID 31926) [DRSC24939] → mitotic cells, replicate 1 = 2; call = inactive
